Binding data for two substances are collected here from doi:10.1101/577908.

The target of assay [1] is T1, PqsD, bacterial two-hybrid fusion (P. aeruginosa) (UniProt P20582).
T1 sequence: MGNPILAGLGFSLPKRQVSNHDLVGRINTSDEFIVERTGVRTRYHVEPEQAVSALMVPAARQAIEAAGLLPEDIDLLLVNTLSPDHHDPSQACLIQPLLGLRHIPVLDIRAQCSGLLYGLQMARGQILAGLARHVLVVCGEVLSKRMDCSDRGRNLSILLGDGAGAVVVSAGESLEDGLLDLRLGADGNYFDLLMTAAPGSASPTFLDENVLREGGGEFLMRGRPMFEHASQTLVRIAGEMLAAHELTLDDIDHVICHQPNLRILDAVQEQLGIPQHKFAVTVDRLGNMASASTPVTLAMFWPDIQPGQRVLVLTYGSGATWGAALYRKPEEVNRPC
In words: two-hybrid.

The target in assay [2] is PA1217 (full protein), bacterial two-hybrid fusion (P. aeruginosa PAO1) (UniProt Q9I4C1). In words: two-hybrid.

These are yes or no findings as the source states them, for the method shown. For part of these data: A result given as binding can be weak or reduced; the word gives no strength. For part of these data: Tags and fused reporters may be left off the sequences shown.

Take “PA1217 (full protein), bacterial two-hybrid fusion (from UniProt Q9I4C1) (enzyme)”: the binding result in assay [1] is reported as “binds”.

With “ThiD, bacterial two-hybrid fusion (from UniProt A0A0H2ZFT8) (enzyme)”, the binding result in assay [2] and in assay [1] was “no binding” each time.
